# Assay results

Source: PubChem BioAssay AID1159506 (NCATS, 2015).

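Genome-wide siRNA knockdown in TC32 Ewing sarcoma cells, comparing luciferase light from an NR0B1-promoter reporter with a CMV-promoter reporter 48 hours after transfection. Each siRNA was applied at 20 nM. A z-score of the log NR0B1-over-CMV signal, less the median of siRNAs with the same seed; more negative means a stronger specific loss of the NR0B1 reporter.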

This is part of the screen; most of the strongest results are not listed here. Sequences are the guide (antisense) strand, without overhang.

siRNA | gene | seed-corrected z-score
UAUCUAAUUCCUGUAACAG | IFT74 | 0.8023
UCUGGUUCAAAAGCCGUUG | LRSAM1 | -1.09
UUUGGUAGGAGCAAUCUGC | FNDC7 | -0.799
UGGUUUAUCAGGGUCCACU | MTHFSD | 0.1943
UGCGUUAACAUUUGCUCCC | ANK2 | -1.185
UUCUUGAUCAGCUUGCCGU | RPL3 | -1.029
AUCAGAAUCAAGUCCAUCC | C15orf57 | 0.07644
UGUCUUGUAAGAAGUCUAG | PIP5K1A | -1.516
UCAGUUUUUGCGAUAAAUC | HS6ST1 | 1.449
UUCUGUAAGUCCUCAAUGC | HSBP1L1 | -1.495
AGGAUUGAAAUCAUUUUCC | NEU1 | 0.4755
UACAGGGUCACAUAAGACU | FAAHP1 | -1.217
UACAUUGAGGACGUAGUGG | CLSTN1 | 0.4735
UCAAAUAUCCAUCAUUUCU | GSTA1 | 0.736
UUUCCUCAGAGAGCGCCUC | GUK1 | -0.9335
ACAGUUUCAGCUAUGUCUG | EME1 | -1.853
AAAGAUCAUAUAGACAUCC | ADAMTSL4 | 0.4554
UCUCUAGAAAGUGCAGGGC | PYCR2 | 0.147
UCCAGUAUCGUUUACAGCC | MSH6 | -0.204
AUCUGGAUACUGGUGUUUC | ENOSF1 | 0.2308
UCUUCGAUUAGUGAAGAUC | VLDLR | 0.628
AAGAGGAAUAGCAAUGACC | OR6Y1 | -1.517
AUUGAGUUUAGGGAGACAC | ZMAT4 | -0.5157
UUACGGAAGAUGCAACCAG | XKR7 | -0.09142
AUUGGUCACUGUCUGUUCC | ZNF335 | -1.99
AAAGUUAAUCGGCCCAUGC | RSPH10B | 0.1163
UCCUUAAUUACGGAUACAG | KHDC1 | 0.4464
UUUGGUACCAGUGCUUGAC | OAS1 | -0.7389
UUUGUAGCAAUGAUGUGAG | RBBP7 | -1.689
UUCCGUGUAACCACCUCUG | PAK2 | -0.8782
UGAACUCUGAAUCCUAUCC | GALNT5 | -0.6882
UACUGGUAGACAAAUACAC | LOC728145 | -0.04501
UUUGGGUUCUCUCUAUAGC | FANCF | 2.089
UUAAUAGCAGCAACAUAUC | DLD | -0.2615
UCUUUUACUACUUCGGCCG | ADA | 0.5883
UGUAUAGUACCAUUCAGGC | GSTO2 | -0.5299
AAUGGUAAAGUGAGGUUCC | C12orf66 | -1.471
UUAGUAGUACUUCCAAUAC | PSD3 | 1.318
UAAAUUACCCUCAGUAGUG | SUSD3 | 1.621
UUGGUAACCAUGACGAUGG | PTPRA | 0.5038
UUUAGUUCAGACACCUCCG | TPM4 | -0.202
UUUCGUAGGAGUGGGAGUG | SPECC1 | -0.7748
UUCCUCAUGACAAUCACCU | LINC00610 | 0.0279
UACAAUGCGACUUCCAUCU | RAB40A | 1.465
AGAUGAACACGAACAGGCC | TMEM200B | 1.022
UCAGCUGAUACACGGGUUC | ANGPTL6 | 0.2525
UUUUGGAUCACCUCUCUCU | STMN4 | 0.4756
UAUUUUGUAGACAACUCCG | HHIPL1 | -0.1843
UGACGGCAUAGAAACCAGG | RDM1 | 0.7482
UUUUCAACUGGUGACCUUG | SCML1 | 0.4392
UAAAAGAUGAGCCCGAACG | PSEN2 | -0.3463
UUGUGAACCACCAUGUCCA | H2AFB2 | 0.1508
UGACAAACAAGUUAUGAGC | GDPGP1 | 0.02977
AUAUGUGAGAUUGUAGACC | SESN3 | 0.5093
AUAGAUGUAGGAGCUCCCG | PSMB6 | 1.428
UUUCCUUUCCGAAGUAUGG | LOC727919 | -0.8424
UCAAUGCGCACAUCUGGAG | RPL31 | -0.2121
UAUGGUCAAAGGUGUAAGA | CLC | -0.1105
UCCCUUACCAUGAAGGCUC | ITK | 0.3141
UAAAAAGUCAUCUAUCUGC | OR2H1 | 0.5421
UUGCGAUUCAGCACUGAAC | NR2C2AP | 1.356
UGAGCUCUACGUAUUUGUC | NDUFA7 | -0.2893
UGACUAUUUUGCGGUGAAC | RPS26P10 | -0.4267
UUCACGAAAAUAUCCUUUG | CTR9 | -0.195
UUUAGAGACAUCUUGGUGG | CHTOP | -0.0908
AAUUCGAUGACAUCGUGCC | CHD8 | 0.267
UUGCGGACGAACAUCAUGC | RSL24D1 | -0.1707
UUCGGUGAAAUCAUUGGAG | SLC38A1 | 0.617

Repeated from the top, 9 entries:

{"sirna": "UAUCUAAUUCCUGUAACAG", "gene": "IFT74", "seed-corrected z-score": "0.8023"}
{"sirna": "UCUGGUUCAAAAGCCGUUG", "gene": "LRSAM1", "seed-corrected z-score": "-1.09"}
{"sirna": "UUUGGUAGGAGCAAUCUGC", "gene": "FNDC7", "seed-corrected z-score": "-0.799"}
{"sirna": "UGGUUUAUCAGGGUCCACU", "gene": "MTHFSD", "seed-corrected z-score": "0.1943"}
{"sirna": "UGCGUUAACAUUUGCUCCC", "gene": "ANK2", "seed-corrected z-score": "-1.185"}
{"sirna": "UUCUUGAUCAGCUUGCCGU", "gene": "RPL3", "seed-corrected z-score": "-1.029"}
{"sirna": "AUCAGAAUCAAGUCCAUCC", "gene": "C15orf57", "seed-corrected z-score": "0.07644"}
{"sirna": "UGUCUUGUAAGAAGUCUAG", "gene": "PIP5K1A", "seed-corrected z-score": "-1.516"}
{"sirna": "UCAGUUUUUGCGAUAAAUC", "gene": "HS6ST1", "seed-corrected z-score": "1.449"}